The list shows a part of the results. These are further read-outs of the screen, such as a control signal, another cell line or another target. No call is given for them. The list favours compounds with an active or inconclusive main result. The note in brackets gives the kind of curve behind each potency; many fits are weak.

The assay is described as follows: qHTS Assay for Lipid Storage Modulators in Drosophila S3 Cells.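 As to cell number change: cells counted by Cell Tracker Red CMTPX staining in the red channel.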 As to conditions: BODIPY lipid droplet fluorescence, 18-24 h; for cell number change: measured here: cell count max response, cells fed with added oleic acid. In short, it runs like this:
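Laser-scanning cytometry quantifies lipid droplet accumulation (500–530 nm total intensity; droplet/cell object ratio) in oleic acid-fed (400 uM added) Drosophila S3 cells treated with a concentration series. 20 uM Triacsin C defined 100% inhibition.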
On the technique in general: Quantitative high-throughput screening tests each substance at several concentrations.

The mark [1] stands for this setting: measured here: lipid fluorescence (Fed channel) AC50, cells fed with added oleic acid.
[2] abbreviates: measured here: cell number channel AC50, cells fed with added oleic acid.

A word on the AC50: it is the concentration giving half of the maximal activity seen. Low readings indicate greater potency, high ones weaker potency. Turning to `CCOC(=O)/C(N=Nc1sc(C(=O)OC)c(C)c1C(=O)OCC)=C(\O)CCl`, the cell number change is -25.8%. Further, the AC50 under setting [1] was 29.1 µM [falling, single point].
In the case of `CCOC(=O)/C(C(=O)Nc1ccccc1Cl)=C1/NC(C)(C)Cc2ccccc21`, the cell number change stood at 48.3%. Besides, under setting [2], the AC50 is 13 µM [rising, single point]. Also, the AC50 under setting [1] was 18.4 µM [rising, partial curve].
For `CC(=O)C1=C(C)NC(SCC(=O)c2ccccc2)=C(C#N)C1CC(C)C` (stereo not drawn), the cell number change is 29.4%. Moreover, the concentration at half-maximal activity (AC50) under setting [2] is 1.64 µM [rising, full curve, poor fit]. Moreover, the AC50 under setting [1] is 4.61 µM [rising, partial curve].
As to `Cc1cc(NS(=O)(=O)c2ccc(NC(=O)Cc3ccccc3)cc2)nc(C)n1`, the cell number change is 28.7%. Under setting [1], the AC50 is 6.51 µM [rising, single point].
`COc1ccc(C2Nc3ccccc3C(=O)N2NC(C)=O)cc1OC` (stereo not drawn): the cell number change is -38%. The AC50 under setting [2] was 32.6 µM [falling, single point]. Further, the half-maximal activity concentration (AC50) under setting [1] was 2.91 µM [rising, partial curve].
Regarding `CCn1c(SCC(=O)NC(C)(C)C)nnc1-c1ccccn1`, the cell number change turned out to be 18%. The AC50 under setting [1] is 6.51 µM [rising, single point].
In the case of `COc1cccc(NC(=O)CSc2nccn(-c3ccc4c(c3)OCCO4)c2=O)c1`, the cell number change was -50%. In addition, the half-maximal activity concentration (AC50) under setting [2] was 29.1 µM [falling, single point].
Turning to `Cc1onc(-c2ccccc2)c1C(=O)N/N=C/c1cc2c(cc1Cl)OCO2`, the cell number change came to 34.4%. Under setting [2], the AC50 is 0.13 µM [rising, full curve]. Also, the AC50 under setting [1] was 1.16 µM [rising, full curve].
On to `CCOC(=O)c1ccc(-n2c(CC)nc3ccccc3c2=O)cc1`, for which the cell number change was determined as 8.5%. The AC50 under setting [1] was 4.11 µM [rising, single point].
As for `CCOC(=O)C1(CCOc2ccccc2)CCN(Cc2ccc(F)c(OC)c2)CC1`, the cell number change is -5.41%. Also, the concentration at half-maximal activity (AC50) under setting [2] is 6.51 µM [falling, single point]. Further, the AC50 under setting [1] was 6.51 µM [falling, single point].
Turning to `COc1cccc(NC(=O)CSc2nc(O)c(C)c(=O)n2-c2ccc(C)cc2)c1`, the AC50 under setting [1] was 29.1 µM [rising, single point].
Take `COCCCNC(=O)Cn1cc(C(C)=O)c2ccccc21`: the cell number change is 22.7%. In addition, the AC50 under setting [1] was 29.1 µM [rising, single point].
For the molecule `CCOc1cccc2sc(NC(=O)c3ccc(Br)s3)nc12`, the cell number change is -12.4%. The AC50 under setting [1] is 9.2 µM [falling, partial curve, poor fit].
As for `Cc1ccccc1OCc1nnc(SCC(=O)Nc2ccc3c(c2)oc2ccccc23)n1C`, the cell number change is -117%. Under setting [2], the half-maximal activity concentration (AC50) was 9.2 µM [falling, partial curve].
As for `CC(C)NC(=O)C(c1ccc(F)cc1)N(C(=O)CCC(=O)Nc1ccccn1)c1ccccc1F` (stereo not drawn), the cell number change is -11.1%.
In the case of `CCN(CC(=O)Nc1ccc(NC(C)=O)cc1)C(=O)/C=C/c1c(C)nn(-c2ccc(F)cc2)c1Cl`, under setting [2], the AC50 is 0.184 µM [falling, full curve, poor fit].
With `Cc1cc(C)c(C)c(OCCCn2ccnc2)c1`, the cell number change is 198%. In addition, the AC50 under setting [2] was 9.2 µM [rising, partial curve]. Also, the AC50 under setting [1] is 18.4 µM [rising, partial curve].
As to `COc1ccc(S(=O)(=O)N2CCN(C)CC2)cc1NC(=O)c1ccccc1C`, the cell number change came to 14.1%.
With `O=c1cc(/C=C/c2ccccc2)oc2c1ccc1ccccc12`, the cell number change is -11.5%. Also, the half-maximal activity concentration (AC50) under setting [1] is 25.9 µM [falling, single point].
For `CCCCc1nc2cc(C(=O)N3CCN(c4cnccn4)CC3)ccc2o1`, the cell number change was 9.25%. Further, under setting [1], the AC50 was 29.1 µM [rising, single point].
On to `O=C(O)Cn1cnc2scc(-c3ccccc3)c2c1=O`, for which the cell number change was -11.8%. In addition, the AC50 under setting [1] was 25.9 µM [rising, single point].
As for `C=C(NC(=O)C(=C)NC(=O)c1csc(C2=NC3c4csc(n4)C4NC(=O)c5csc(n5)C([C@@](C)(O)C(C)O)NC(=O)C5CSC(=N5)/C(=C\C)NC(=O)C(C(C)O)NC(=O)c5csc(n5)[C@]3(CC2)NC(=O)C(C)NC(=O)C(=C)NC(=O)C(C)NC(=O)C(C(C)CC)NC2C=Cc3c(C(C)O)cc(nc3C2O)C(=O)OC4C)n1)C(N)=O` (stereo partly drawn), the cell number change was 14.2%. In addition, under setting [1], the AC50 is 2.06 µM [falling, single point].
As to `Cc1ccc(F)cc1NC(=O)CN1C(=O)NC2(CCCc3ccccc32)C1=O` (stereo not drawn), the cell number change was determined as 23.7%. Also, under setting [2], the AC50 was 1.16 µM [rising, full curve, poor fit].
As for `Cc1cccc(NC(=O)CC2SC(=NC3CCCCC3)NC2=O)c1` (stereo not drawn), the cell number change was determined as 2.3%.
Regarding `O=C(NNc1ccc(Cl)cc1)c1cccs1`, the cell number change worked out at 14.9%. Moreover, the AC50 under setting [2] was 0.58 µM [falling, single point].
Turning to `COc1ccc2c(=O)c(-c3ccccc3)c(C)oc2c1`, the cell number change came out at 46.7%. Under setting [2], the AC50 was 2.59 µM [rising, partial curve].
On to `O=c1[nH]c2ccc(NCc3ccccc3OCc3ccc(Cl)cc3)cc2[nH]1`, for which the cell number change was -53%. For the same molecule, the AC50 under setting [2] is 25.9 µM [falling, single point].
Turning to `COC(=O)C(C)NC(=O)C12CC3CC(C1)CC(c1ccc(C)cc1)(C3)C2` (stereo not drawn), the cell number change was -20.6%.
In the case of `COc1cccc(-n2nnc3c(=O)n(CC(=O)Nc4ccc(C)cc4)cnc32)c1`, the cell number change was -38.1%. Also, the AC50 under setting [2] was 6.51 µM [falling, single point]. The AC50 under setting [1] is 6.51 µM [falling, single point].
Consider `COc1ccc(OC)c(/C=N\NC(=O)c2c(C)nc3cc(C)ccn23)c1`, for which the cell number change came to 16.1%.
For `C/C(=N\NC(N)=S)c1ccncc1`, the cell number change amounted to 13.7%. For the same molecule, under setting [1], the AC50 was 7.31 µM [rising, partial curve, poor fit].
Regarding `COc1cccc2cc(C(=O)NCc3ccc(Cl)cc3)c(=O)oc12`, the cell number change was -19%.
On to `CNS(=O)(=O)c1ccc(C(=O)NCC(=O)NCCc2ccc3c(c2)OCCO3)cc1`, for which the cell number change was -0.275%. In addition, the AC50 under setting [1] is 0.116 µM [falling, partial curve, poor fit].
Regarding `Cc1nn(-c2ccccc2)c(C)c1/C=N/NC(=O)c1ccccc1O`, the cell number change is 23.4%. Besides, the AC50 under setting [2] is 4.11 µM [rising, full curve, poor fit]. Besides, the AC50 under setting [1] is 14.6 µM [rising, single point].
As to `O=C(c1cccs1)N1CCN(c2nc3c(F)cc(F)cc3s2)CC1`, the cell number change was -20.8%.
In the case of `O=C(CSCc1ccc(F)cc1)NC1CCCC1`, the cell number change was -38.4%. The concentration at half-maximal activity (AC50) under setting [2] was 4.11 µM [falling, full curve]. The AC50 under setting [1] is 3.66 µM [falling, full curve].
On to `Cc1ccc(NC(=O)CCc2nc3ccccc3c(=O)[nH]2)cc1S(=O)(=O)N1CCOCC1`, for which the cell number change is -18%. The AC50 under setting [1] is 5.8 µM [falling, full curve, poor fit].
`NS(=O)(=O)c1ccc(NNC(=O)c2ccccc2)cc1`: the cell number change is -15.5%. The AC50 under setting [1] was 6.51 µM [falling, single point].
Take `O=C(N/N=C/c1cccc(OC(=O)c2ccc3c(c2)OCO3)c1)c1cncc(Br)c1`: the AC50 under setting [1] is 4.61 µM [rising, partial curve].
As to `CSc1nsc(/C=C/Nc2ccc(F)cc2F)c1C#N`, the cell number change is 19.5%. Further, under setting [1], the half-maximal activity concentration (AC50) was 6.51 µM [rising, single point].
Consider `CCc1c(C)sc(NC(=O)OC)c1C(=O)N1CCOCC1`, for which the cell number change is -17%. For the same molecule, the AC50 under setting [1] was 29.1 µM [falling, single point].
On to `CC1(C)Cc2c(c(-c3ccccc3Cl)[nH]c(=O)c2C#N)CO1`, for which the AC50 under setting [2] was 6.51 µM [falling, single point] and the AC50 under setting [1] is 29.1 µM [falling, single point].
For `O=C(Nc1ccc(F)cc1F)N1CCCN(c2ccc([N+](=O)[O-])cn2)CC1`, the cell number change is -41.2%. Besides, the AC50 under setting [2] was 29.1 µM [falling, single point]. The AC50 under setting [1] was 18.4 µM [falling, single point].
`CCOc1ccccc1NC(=O)Nc1cccc(C(C)=O)c1`: the cell number change was found to be 0.971%. The AC50 under setting [2] is 1.64 µM [rising, single point]. Further, under setting [1], the half-maximal activity concentration (AC50) is 0.651 µM [rising, partial curve, poor fit].
For `O=C(Nc1cnn(C23CC4CC(CC(C4)C2)C3)c1)c1cnn2cccnc12`, the cell number change was -44.8%. The AC50 under setting [2] was 13 µM [falling, partial curve]. Further, the AC50 under setting [1] is 1.03 µM [rising, single point].
Regarding `Cc1ccccc1NC(=O)c1ccc(C)c(S(=O)(=O)N2CCN(C)CC2)c1`, the cell number change was 1.37%. For the same molecule, the half-maximal activity concentration (AC50) under setting [1] is 29.1 µM [falling, single point].
Regarding `Cc1cnc(NC(=O)CSc2nnc(-c3ccncc3)n2C2CCCCC2)s1`, the cell number change amounted to 0.475%. Besides, the AC50 under setting [1] is 10.3 µM [rising, partial curve].
`COc1ccccc1Cn1c(SCC(N)=O)nc2c(oc3ccccc32)c1=O`: the cell number change was 9.12%. For the same molecule, the AC50 under setting [1] is 0.164 µM [rising, full curve, poor fit].
As for `CCCn1c(C(O)c2cc(OC)c(OC)c(OC)c2)nc2ccccc21` (stereo not drawn), the cell number change is -47.2%. In addition, under setting [2], the AC50 is 7.31 µM [falling, partial curve]. Also, under setting [1], the AC50 was 29.1 µM [falling, single point].
For the molecule `O=C(CSc1nc2ccccc2[nH]1)Nc1ccc(N2CCOCC2)cc1`, the cell number change is -1.74%.
For the molecule `CC1CCC(NC(=O)c2cc(Cl)nc3ccccc23)CC1` (stereo not drawn), the cell number change is -10.6%. Also, under setting [1], the AC50 is 0.092 µM [rising, full curve, poor fit].
For `CCc1ccc(NC(=O)C2CCN(C(=O)N3CCOc4ccccc43)CC2)cc1`, the cell number change came out at 2.88%.
On to `Cc1cccc(C2CC(c3ccc(F)cc3)Nc3nc(N)nn32)c1` (stereo not drawn), for which, under setting [1], the AC50 was 5.8 µM [rising, full curve, poor fit].
With `O=S(=O)(NC1CCCCC1)c1ccc(Br)s1`, the cell number change was 5.04%. Further, the AC50 under setting [1] was 29.1 µM [rising, partial curve, poor fit].
Turning to `Fc1cccc(CN2CCN(C(=S)NCCc3ccccc3)CC2)c1`, the cell number change is 42.9%. Moreover, the AC50 under setting [2] was 29.1 µM [rising, single point].
Regarding `CCOC(=O)c1ccc[n+](CC(=O)Nc2ccccc2OC(F)F)c1`, under setting [1], the AC50 was 29.1 µM [rising, partial curve, poor fit].
On to `Cc1nnc(SCC(=O)N/N=C/c2ccc(-c3ccc(C)c(Cl)c3)o2)s1`, for which the cell number change was -33.2%. For the same molecule, under setting [2], the AC50 was 29.1 µM [falling, single point].

(Values after PubChem BioAssay AID2685 (National Center for Advancing Translational Sciences (NCATS), 2010).)
